PubChem BioAssay AID1224830, NIAID | 2016
Purpose: 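Host factors that control LPS-induced TNF expression in human macrophages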 (primary screen). Cells: human THP-1 monocytic leukaemia cells, TNF dual-luciferase reporter clone, PMA-differentiated to macrophage-like cells. Reagent: siRNA pool against human genes, 50 nM. Duration: LPS for 4 h, given about 3 days after siRNA transfection. Conditions: bacterial LPS (TLR4 ligand), 10 ng/ml. Measurement: 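Ratio of firefly to renilla light, scaled to the plate median and expressed as a robust z-score per replicate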. Direction: TNF reporter robust z-score: higher = stronger TNF reporter response to LPS. Call rule: 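Each well counts as active if its z-score is over 2.8 or under -1.5; controls are left without a call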.
Shown is a random part of about 18,000 reagents. About 2,900 of all reagents (16%) were called active. 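Calls are made per well; low scores hint the gene aids the LPS response, high scores that it dampens it.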 Repeated entries: four replicate wells of each siRNA pool.

{"gene":"PPP3CA (protein phosphatase 3 catalytic subunit alpha)","TNF reporter robust z-score":0.12,"outcome":"inactive"}
{"gene":"PPP3CA (protein phosphatase 3 catalytic subunit alpha)","TNF reporter robust z-score":0.1,"outcome":"inactive"}
{"gene":"PPP3CA (protein phosphatase 3 catalytic subunit alpha)","TNF reporter robust z-score":-0.35,"outcome":"inactive"}
{"gene":"PPP3CA (protein phosphatase 3 catalytic subunit alpha)","TNF reporter robust z-score":-0.43,"outcome":"inactive"}
{"gene":"HRH1 (histamine receptor H1)","TNF reporter robust z-score":0.25,"outcome":"inactive"}
{"gene":"HRH1 (histamine receptor H1)","TNF reporter robust z-score":1.25,"outcome":"inactive"}
{"gene":"HRH1 (histamine receptor H1)","TNF reporter robust z-score":1.48,"outcome":"inactive"}
{"gene":"HRH1 (histamine receptor H1)","TNF reporter robust z-score":0.96,"outcome":"inactive"}
{"gene":"OAZ2 (ornithine decarboxylase antizyme 2)","TNF reporter robust z-score":-0.61,"outcome":"inactive"}
{"gene":"OAZ2 (ornithine decarboxylase antizyme 2)","TNF reporter robust z-score":-1.18,"outcome":"inactive"}
{"gene":"OAZ2 (ornithine decarboxylase antizyme 2)","TNF reporter robust z-score":0.39,"outcome":"inactive"}
{"gene":"OAZ2 (ornithine decarboxylase antizyme 2)","TNF reporter robust z-score":0.64,"outcome":"inactive"}
{"gene":"TAS2R9 (taste 2 receptor member 9)","TNF reporter robust z-score":0.54,"outcome":"inactive"}
{"gene":"TAS2R9 (taste 2 receptor member 9)","TNF reporter robust z-score":1.54,"outcome":"inactive"}
{"gene":"TAS2R9 (taste 2 receptor member 9)","TNF reporter robust z-score":1.22,"outcome":"inactive"}
{"gene":"TAS2R9 (taste 2 receptor member 9)","TNF reporter robust z-score":-0.45,"outcome":"inactive"}
{"gene":"ALDH7A1 (aldehyde dehydrogenase 7 family member A1)","TNF reporter robust z-score":-0.63,"outcome":"inactive"}
{"gene":"ALDH7A1 (aldehyde dehydrogenase 7 family member A1)","TNF reporter robust z-score":0.11,"outcome":"inactive"}
{"gene":"ALDH7A1 (aldehyde dehydrogenase 7 family member A1)","TNF reporter robust z-score":0,"outcome":"inactive"}
{"gene":"ALDH7A1 (aldehyde dehydrogenase 7 family member A1)","TNF reporter robust z-score":0.77,"outcome":"inactive"}
